Test results: article PMC4837477
Results are given in words; binding and its absence hold for the method and conditions named.

By UniProt entry, the sequences of proteins in these tests, tags left out.
UniProt Q6FSK0: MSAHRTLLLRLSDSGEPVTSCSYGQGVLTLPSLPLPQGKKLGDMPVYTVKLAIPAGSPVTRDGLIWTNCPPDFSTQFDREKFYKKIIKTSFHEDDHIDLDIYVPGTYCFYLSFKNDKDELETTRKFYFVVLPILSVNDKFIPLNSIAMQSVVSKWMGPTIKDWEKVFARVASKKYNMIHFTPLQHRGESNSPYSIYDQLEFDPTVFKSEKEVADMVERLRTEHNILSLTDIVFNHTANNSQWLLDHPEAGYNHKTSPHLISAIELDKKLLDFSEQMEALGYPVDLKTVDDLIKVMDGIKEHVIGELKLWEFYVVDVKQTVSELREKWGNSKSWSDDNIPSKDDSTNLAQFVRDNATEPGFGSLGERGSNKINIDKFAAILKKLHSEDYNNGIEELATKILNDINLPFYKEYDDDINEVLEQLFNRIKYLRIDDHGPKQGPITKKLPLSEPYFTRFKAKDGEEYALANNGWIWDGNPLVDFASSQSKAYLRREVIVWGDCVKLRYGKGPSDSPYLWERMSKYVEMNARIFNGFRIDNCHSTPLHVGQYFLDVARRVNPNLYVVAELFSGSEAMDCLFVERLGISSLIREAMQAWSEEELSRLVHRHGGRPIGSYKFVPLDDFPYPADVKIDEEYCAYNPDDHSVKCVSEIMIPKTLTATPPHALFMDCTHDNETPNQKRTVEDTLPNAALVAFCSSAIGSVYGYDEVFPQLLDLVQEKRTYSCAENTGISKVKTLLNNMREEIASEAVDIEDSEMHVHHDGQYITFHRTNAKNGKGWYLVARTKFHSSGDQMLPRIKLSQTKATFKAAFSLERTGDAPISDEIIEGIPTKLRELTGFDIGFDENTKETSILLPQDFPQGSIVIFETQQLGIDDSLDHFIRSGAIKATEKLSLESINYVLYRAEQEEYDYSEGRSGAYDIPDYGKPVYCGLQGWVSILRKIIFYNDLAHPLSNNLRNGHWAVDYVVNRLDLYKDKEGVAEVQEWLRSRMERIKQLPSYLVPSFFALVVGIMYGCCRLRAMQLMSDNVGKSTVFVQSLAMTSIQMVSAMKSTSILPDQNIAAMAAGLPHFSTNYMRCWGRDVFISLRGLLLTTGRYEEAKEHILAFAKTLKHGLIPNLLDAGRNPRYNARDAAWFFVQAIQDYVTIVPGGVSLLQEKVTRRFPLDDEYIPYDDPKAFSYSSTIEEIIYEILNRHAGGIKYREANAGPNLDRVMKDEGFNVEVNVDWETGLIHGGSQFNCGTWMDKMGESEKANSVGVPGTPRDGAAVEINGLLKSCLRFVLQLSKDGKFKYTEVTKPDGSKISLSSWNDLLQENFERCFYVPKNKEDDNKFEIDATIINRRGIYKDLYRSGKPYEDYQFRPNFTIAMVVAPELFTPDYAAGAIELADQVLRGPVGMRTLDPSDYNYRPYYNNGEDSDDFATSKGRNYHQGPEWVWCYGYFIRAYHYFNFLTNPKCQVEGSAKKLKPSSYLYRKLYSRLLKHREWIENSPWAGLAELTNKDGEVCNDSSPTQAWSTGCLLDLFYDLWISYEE

Molecular target: Candida glabrata glycogen debranching enzyme (Candida glabrata) (UniProt Q6FSK0)
Assay: dynamic light scattering; DynaPro Titan, 20 °C; CgGDE at 20 mg ml^-1 in 20 mM Tris pH 7.5, 200 mM NaCl, 2 mM DTT; both purified

binding: no binding (tested: 20 mg ml^-1)
Substance: Candida glabrata glycogen debranching enzyme (from UniProt Q6FSK0 1-1528)
